Experiments:
Cytochrome P450 2A6 = Cytochrome P450 2A6 (Homo sapiens, UniProt P11509); conditions: bti-tn-5b1-4; further: in other assays of this panel Not Active means under 50% inhibition at 10 µM
[1] = molecular target: Beta-1 adrenergic receptor (Homo sapiens, UniProt P08588); experiment: DRUGMATRIX: Adrenergic beta1 radioligand binding (ligand: [125I] Cyanopindolol); type: cell membranes, Membrane; conditions: cho-k1; Not Active = under 50% inhibition at 10 µM
[2] = molecular target: T1, 5-hydroxytryptamine receptor 2C (Homo sapiens, UniProt P28335); experiment: DRUGMATRIX: Serotonin (5-Hydroxytryptamine) 5-HT2C radioligand binding (ligand: [3H] Mesulergine); type: cell membranes, CHO-K1, Membrane; conditions: Not Active = under 50% inhibition at 10 µM
T1 sequence (P28335 whole entry): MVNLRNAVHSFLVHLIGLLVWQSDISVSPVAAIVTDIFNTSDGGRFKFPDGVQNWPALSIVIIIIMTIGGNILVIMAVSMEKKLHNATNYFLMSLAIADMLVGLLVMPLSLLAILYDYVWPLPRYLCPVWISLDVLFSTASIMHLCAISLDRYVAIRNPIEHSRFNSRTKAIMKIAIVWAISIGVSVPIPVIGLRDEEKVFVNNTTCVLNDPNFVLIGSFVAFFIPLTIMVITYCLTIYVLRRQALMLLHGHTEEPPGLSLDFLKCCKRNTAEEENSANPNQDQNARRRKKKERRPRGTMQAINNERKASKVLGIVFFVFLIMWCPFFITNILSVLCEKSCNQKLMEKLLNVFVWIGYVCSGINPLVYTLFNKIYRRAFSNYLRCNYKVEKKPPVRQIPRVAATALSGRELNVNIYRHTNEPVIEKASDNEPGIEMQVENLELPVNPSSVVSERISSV

Amino acid sequences for entries named in this document (tags omitted). A change or cut given only in a name is not applied to a line headed by its entry.
UniProt P11509: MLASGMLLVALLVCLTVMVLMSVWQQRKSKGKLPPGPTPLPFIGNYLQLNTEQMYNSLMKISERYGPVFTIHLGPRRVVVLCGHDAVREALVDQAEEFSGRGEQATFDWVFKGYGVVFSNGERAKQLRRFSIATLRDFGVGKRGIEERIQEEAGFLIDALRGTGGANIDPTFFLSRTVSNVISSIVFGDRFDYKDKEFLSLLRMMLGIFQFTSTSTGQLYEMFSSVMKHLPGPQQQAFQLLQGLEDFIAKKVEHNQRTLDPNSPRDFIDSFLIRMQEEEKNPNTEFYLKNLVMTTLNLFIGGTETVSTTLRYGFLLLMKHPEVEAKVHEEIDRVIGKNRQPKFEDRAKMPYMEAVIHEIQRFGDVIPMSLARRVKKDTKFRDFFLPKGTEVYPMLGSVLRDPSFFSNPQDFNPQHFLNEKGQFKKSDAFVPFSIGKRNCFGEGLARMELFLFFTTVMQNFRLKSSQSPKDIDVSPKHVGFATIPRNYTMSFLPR
UniProt P08588, whole entry: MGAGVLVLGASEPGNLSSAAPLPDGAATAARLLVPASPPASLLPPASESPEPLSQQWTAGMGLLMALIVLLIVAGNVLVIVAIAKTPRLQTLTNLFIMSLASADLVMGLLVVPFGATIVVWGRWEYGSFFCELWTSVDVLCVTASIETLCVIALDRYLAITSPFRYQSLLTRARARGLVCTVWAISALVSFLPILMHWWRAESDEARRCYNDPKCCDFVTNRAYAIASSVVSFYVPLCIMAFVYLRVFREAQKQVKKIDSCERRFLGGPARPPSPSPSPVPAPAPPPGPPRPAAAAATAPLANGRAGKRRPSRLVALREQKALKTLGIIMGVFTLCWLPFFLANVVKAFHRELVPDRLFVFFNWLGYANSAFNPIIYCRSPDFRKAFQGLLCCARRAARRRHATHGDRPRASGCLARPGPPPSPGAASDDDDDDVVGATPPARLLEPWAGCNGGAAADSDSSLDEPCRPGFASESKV
UniProt P05181: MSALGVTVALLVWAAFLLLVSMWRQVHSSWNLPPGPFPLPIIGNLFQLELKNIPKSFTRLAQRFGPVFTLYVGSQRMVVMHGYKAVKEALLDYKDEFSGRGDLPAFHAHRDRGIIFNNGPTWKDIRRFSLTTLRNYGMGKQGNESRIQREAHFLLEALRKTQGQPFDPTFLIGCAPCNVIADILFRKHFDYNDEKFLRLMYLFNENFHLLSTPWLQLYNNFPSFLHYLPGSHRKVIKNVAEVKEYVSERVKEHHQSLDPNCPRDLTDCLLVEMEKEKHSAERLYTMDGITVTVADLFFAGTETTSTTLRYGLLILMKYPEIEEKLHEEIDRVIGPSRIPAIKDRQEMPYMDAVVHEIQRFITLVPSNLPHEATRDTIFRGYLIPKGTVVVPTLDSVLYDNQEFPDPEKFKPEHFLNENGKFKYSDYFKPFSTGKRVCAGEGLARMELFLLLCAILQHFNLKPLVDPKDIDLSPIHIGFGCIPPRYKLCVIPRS
UniProt P08684, whole entry: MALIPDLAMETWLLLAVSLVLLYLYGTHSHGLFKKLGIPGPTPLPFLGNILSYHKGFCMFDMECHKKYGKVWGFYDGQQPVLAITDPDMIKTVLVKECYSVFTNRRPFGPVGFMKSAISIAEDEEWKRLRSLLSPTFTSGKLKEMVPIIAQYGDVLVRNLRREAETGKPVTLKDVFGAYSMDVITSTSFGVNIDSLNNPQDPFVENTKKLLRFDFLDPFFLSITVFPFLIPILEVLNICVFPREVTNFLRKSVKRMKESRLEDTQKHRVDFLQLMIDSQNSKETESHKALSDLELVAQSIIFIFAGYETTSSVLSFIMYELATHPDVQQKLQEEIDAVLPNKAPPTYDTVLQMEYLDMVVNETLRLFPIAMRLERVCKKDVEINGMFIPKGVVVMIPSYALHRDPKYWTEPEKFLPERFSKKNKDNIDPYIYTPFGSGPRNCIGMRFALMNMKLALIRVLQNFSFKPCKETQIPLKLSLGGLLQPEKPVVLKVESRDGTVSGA
UniProt Q12809: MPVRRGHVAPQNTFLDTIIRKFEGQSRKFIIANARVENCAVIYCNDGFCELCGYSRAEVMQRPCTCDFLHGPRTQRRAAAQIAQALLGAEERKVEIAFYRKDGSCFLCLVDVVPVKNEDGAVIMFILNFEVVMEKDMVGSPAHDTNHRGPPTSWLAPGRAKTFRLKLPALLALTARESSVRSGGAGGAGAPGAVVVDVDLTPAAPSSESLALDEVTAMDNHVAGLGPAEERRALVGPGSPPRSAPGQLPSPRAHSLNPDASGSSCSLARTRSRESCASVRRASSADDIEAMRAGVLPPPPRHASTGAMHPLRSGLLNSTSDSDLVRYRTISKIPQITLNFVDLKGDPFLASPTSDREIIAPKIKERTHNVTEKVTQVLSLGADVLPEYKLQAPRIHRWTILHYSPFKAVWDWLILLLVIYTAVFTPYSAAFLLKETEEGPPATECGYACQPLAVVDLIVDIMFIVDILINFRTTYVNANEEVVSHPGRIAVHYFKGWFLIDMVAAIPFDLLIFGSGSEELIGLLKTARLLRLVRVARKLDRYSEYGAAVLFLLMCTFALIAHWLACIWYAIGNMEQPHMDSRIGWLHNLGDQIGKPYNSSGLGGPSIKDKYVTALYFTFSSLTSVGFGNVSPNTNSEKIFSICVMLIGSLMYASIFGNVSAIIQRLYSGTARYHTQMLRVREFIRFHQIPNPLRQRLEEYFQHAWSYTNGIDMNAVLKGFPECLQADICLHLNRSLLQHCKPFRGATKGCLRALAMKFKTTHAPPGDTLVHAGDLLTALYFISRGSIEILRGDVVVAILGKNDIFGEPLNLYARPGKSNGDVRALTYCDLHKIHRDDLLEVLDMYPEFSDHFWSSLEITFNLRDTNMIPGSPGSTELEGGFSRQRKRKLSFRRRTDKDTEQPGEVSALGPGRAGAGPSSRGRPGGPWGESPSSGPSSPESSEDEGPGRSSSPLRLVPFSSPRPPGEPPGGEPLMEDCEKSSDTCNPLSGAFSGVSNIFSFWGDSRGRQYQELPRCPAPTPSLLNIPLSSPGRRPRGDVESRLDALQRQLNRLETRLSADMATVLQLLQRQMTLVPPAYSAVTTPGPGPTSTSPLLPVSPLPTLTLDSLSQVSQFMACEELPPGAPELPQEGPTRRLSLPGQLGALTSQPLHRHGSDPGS
UniProt P10635, whole entry: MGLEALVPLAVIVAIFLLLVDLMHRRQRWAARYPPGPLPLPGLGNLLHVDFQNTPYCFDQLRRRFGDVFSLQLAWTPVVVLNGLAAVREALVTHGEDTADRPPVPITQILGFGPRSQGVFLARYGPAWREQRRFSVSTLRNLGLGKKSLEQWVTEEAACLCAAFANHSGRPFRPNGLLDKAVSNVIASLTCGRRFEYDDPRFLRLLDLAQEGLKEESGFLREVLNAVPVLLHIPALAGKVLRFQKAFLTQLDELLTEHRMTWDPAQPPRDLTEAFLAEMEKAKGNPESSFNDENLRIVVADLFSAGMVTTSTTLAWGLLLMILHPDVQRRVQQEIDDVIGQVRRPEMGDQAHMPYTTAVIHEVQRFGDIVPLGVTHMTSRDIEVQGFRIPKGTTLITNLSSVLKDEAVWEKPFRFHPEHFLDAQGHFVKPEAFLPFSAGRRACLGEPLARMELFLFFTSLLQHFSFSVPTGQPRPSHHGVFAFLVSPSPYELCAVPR
UniProt P11712, whole entry: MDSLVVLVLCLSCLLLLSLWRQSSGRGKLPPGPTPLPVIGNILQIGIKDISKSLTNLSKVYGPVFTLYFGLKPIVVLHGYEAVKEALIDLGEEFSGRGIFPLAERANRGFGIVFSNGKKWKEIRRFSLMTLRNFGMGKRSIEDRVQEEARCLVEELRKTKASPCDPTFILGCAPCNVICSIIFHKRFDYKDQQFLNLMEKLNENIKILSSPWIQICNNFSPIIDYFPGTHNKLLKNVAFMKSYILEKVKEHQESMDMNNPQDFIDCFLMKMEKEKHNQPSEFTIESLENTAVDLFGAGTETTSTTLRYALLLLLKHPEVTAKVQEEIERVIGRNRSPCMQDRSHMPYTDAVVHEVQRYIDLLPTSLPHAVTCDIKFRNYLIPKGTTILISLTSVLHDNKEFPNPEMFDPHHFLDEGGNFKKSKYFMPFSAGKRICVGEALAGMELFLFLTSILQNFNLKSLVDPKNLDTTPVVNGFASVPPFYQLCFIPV
UniProt P43140: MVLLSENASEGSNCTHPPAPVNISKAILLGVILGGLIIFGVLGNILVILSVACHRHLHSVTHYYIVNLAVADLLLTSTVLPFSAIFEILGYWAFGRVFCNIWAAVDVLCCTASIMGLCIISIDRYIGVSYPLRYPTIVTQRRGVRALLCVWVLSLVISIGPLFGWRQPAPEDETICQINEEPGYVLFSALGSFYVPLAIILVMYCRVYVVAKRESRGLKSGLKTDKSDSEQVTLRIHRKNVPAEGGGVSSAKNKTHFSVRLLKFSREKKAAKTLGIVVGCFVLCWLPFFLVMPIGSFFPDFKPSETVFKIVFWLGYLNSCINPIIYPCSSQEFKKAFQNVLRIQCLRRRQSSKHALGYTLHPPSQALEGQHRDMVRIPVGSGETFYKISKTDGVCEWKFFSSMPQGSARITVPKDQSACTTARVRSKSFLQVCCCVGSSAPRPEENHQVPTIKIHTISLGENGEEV
UniProt P07727: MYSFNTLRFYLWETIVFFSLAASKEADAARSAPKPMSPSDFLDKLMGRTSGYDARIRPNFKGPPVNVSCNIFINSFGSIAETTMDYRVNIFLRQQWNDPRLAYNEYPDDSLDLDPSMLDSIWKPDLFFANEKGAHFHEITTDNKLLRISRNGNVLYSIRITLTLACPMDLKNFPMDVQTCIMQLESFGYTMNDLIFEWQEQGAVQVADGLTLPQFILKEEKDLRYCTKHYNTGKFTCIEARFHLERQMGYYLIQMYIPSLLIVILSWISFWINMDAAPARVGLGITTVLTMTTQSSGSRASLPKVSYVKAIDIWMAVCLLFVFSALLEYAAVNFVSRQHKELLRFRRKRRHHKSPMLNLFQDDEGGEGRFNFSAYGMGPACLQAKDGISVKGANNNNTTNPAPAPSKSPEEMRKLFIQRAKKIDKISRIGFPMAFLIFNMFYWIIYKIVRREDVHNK
UniProt P20781: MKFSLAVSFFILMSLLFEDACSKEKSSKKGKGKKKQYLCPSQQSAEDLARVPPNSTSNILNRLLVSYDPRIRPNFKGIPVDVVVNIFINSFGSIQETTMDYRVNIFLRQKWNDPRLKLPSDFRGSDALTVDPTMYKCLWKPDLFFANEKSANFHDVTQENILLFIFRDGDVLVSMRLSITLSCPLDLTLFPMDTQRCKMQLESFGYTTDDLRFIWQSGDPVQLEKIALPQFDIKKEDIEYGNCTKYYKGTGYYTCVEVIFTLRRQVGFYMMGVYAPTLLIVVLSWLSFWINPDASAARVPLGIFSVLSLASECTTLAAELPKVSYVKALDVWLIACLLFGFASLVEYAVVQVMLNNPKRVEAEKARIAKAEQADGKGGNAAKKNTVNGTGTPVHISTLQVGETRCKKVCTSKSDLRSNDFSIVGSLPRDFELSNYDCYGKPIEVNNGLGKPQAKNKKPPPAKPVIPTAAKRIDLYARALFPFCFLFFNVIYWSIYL
UniProt P22771: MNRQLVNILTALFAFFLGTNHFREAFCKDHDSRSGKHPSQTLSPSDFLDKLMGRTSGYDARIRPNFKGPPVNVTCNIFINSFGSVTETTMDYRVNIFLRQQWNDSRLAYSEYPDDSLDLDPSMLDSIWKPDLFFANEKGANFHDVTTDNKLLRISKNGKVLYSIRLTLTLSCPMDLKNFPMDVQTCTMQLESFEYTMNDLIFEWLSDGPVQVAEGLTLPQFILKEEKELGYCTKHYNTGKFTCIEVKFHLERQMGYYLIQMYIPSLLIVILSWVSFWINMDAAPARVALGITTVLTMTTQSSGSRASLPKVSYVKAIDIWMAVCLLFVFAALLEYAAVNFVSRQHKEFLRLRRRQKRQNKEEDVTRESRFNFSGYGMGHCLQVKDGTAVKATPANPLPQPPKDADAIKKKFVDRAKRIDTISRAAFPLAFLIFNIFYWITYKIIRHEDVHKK
UniProt P24524: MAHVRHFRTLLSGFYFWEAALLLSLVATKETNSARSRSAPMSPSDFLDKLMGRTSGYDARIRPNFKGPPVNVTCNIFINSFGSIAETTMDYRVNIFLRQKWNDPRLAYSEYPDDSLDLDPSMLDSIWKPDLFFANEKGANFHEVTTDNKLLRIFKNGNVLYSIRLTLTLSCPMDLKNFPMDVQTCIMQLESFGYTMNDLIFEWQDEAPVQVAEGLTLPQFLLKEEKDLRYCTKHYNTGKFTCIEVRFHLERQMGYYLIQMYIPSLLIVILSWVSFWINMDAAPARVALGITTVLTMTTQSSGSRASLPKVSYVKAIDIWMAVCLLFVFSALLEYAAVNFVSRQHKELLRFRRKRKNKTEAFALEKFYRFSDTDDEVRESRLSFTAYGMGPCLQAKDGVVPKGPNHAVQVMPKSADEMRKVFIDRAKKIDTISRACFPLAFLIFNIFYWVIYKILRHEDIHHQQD

Cytochrome P450 2E1 = Cytochrome P450 2E1 (Homo sapiens, UniProt P05181); conditions: bti-tn-5b1-4; further: in other assays of this panel Not Active means under 50% inhibition at 10 µM
Cytochrome P450 3A4 = Cytochrome P450 3A4 (Homo sapiens, UniProt P08684); conditions: bti-tn-5b1-4; further: in other assays of this panel Not Active means under 50% inhibition at 10 µM
[3] = molecular target: Voltage-gated inwardly rectifying potassium channel KCNH2 (Homo sapiens, UniProt Q12809); conditions: hek293; further: in other assays of this panel Not Active means under 50% inhibition at 10 µM
Cytochrome P450 2D6 = Cytochrome P450 2D6 (Homo sapiens, UniProt P10635); conditions: bti-tn-5b1-4; further: in other assays of this panel Not Active means under 50% inhibition at 10 µM
Cytochrome P450 2C9 = Cytochrome P450 2C9 (Homo sapiens, UniProt P11712); conditions: bti-tn-5b1-4; further: in other assays of this panel Not Active means under 50% inhibition at 10 µM
[4] = molecular target: T2, Alpha-1B adrenergic receptor (Rattus norvegicus, UniProt P15823); experiment: DRUGMATRIX: Alpha-1B adrenergic receptor radioligand binding (ligand: prazosin); type: cell membranes, Wistar, Liver, Membrane; conditions: Not Active = under 50% inhibition at 10 µM
T2 sequence (P15823 whole entry): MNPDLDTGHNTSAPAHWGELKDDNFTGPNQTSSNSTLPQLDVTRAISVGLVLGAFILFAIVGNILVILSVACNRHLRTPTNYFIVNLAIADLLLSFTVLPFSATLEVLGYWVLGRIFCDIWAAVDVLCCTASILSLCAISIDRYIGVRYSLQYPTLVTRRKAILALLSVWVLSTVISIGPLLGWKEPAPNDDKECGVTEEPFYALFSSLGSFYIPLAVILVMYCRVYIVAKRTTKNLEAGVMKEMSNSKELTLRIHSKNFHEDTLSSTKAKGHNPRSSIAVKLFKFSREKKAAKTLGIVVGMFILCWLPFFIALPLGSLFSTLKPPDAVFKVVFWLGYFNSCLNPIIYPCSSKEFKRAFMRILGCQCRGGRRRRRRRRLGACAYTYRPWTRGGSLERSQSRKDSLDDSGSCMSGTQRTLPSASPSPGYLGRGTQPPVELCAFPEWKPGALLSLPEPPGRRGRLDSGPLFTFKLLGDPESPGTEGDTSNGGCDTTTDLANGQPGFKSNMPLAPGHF

Cytochrome P450 1A2 = Cytochrome P450 1A2 (Homo sapiens, UniProt P05177); conditions: bti-tn-5b1-4; further: in other assays of this panel Not Active means under 50% inhibition at 10 µM
[5] = molecular target: Alpha-1A adrenergic receptor (Rattus norvegicus, UniProt P43140); experiment: DRUGMATRIX: Alpha-1A adrenergic receptor radioligand binding (ligand: prazosin); type: cell membranes, Wistar, Submaxillary gland, Membrane; conditions: Not Active = under 50% inhibition at 10 µM
[6] = molecular target: Alpha-2A adrenergic receptor (Homo sapiens, UniProt P08913); type: cell membranes, Membrane; conditions: sf9; further: in other assays of this panel Not Active means under 50% inhibition at 10 µM
Glycine receptor = Glycine receptor (Rattus norvegicus, UniProt P07727+P20781+P22771+P24524); type: cell membranes, Wistar, Spinal cord, Membrane; further: in other assays of this panel Not Active means under 50% inhibition at 10 µM

Q: How did the IC50 (Cytochrome P450 2A6) turn out when `C(=C\c1ccccc1)/CN1CCN(C(c2ccccc2)c2ccccc2)CC1` [CINNARIZINE] was run?
A: The IC50 was “Not Active”.

Q: What about the Ki (Cytochrome P450 2A6) of the same compound?
A: The Ki was “Not Active”.

Q: What about the IC50 [1] of the same compound?
A: The IC50 was “Not Active”.

Q: What about the IC50 ([2]; cho-k1) of the same compound?
A: The IC50 was “Not Active”.

Q: And the IC50 (Cytochrome P450 2E1)?
A: Its IC50 is “Not Active”.

Q: And the Ki (Cytochrome P450 2E1)?
A: Its Ki is “Not Active”.

Q: What about the IC50 (Cytochrome P450 3A4) of the same compound?
A: The IC50 was “Not Active”.

Q: And the Ki (Cytochrome P450 3A4)?
A: The Ki was “Not Active”.

Q: And the IC50 [3]?
A: The IC50 was “Not Active”.

Q: And the Ki [3]?
A: The Ki was “Not Active”.

Q: What about the IC50 (Cytochrome P450 2D6) of the same compound?
A: Its IC50 is “Not Active”.

Q: And the Ki (Cytochrome P450 2D6)?
A: The Ki was “Not Active”.

Q: What about the IC50 (Cytochrome P450 2C9) of the same compound?
A: The IC50 was “Not Active”.

Q: What about the Ki (Cytochrome P450 2C9) of the same compound?
A: Its Ki is “Not Active”.

Q: And the Ki [4]?
A: The Ki was 502 nM.

Q: And the IC50 ([4]; read-out: IC50)?
A: Its IC50 is 906 nM.

Q: And the IC50 (Cytochrome P450 1A2)?
A: Its IC50 is “Not Active”.

Q: And the Ki (Cytochrome P450 1A2)?
A: Its Ki is “Not Active”.

Q: Which IC50 [1] does the source give for `Clc1ccc2c(c1)CCc1cccnc1C2=C1CCNCC1` [DESLORATADINE] here?
A: The IC50 was “Not Active”.

Q: What about the Ki [2] of the same compound?
A: The Ki was 16 nM.

Q: And the IC50 ([2]; read-out: IC50)?
A: The IC50 was 30 nM.

Q: And the IC50 [5]?
A: Its IC50 is “Not Active”.

Q: And the IC50 [6]?
A: The IC50 was “Not Active”.

Q: What about the IC50 (Glycine receptor) of the same compound?
A: The IC50 was 834 nM.

Q: And the Ki (Glycine receptor)?
A: The Ki was 471 nM.

Reference: ChEMBL document CHEMBL1909046, “DrugMatrix in vitro pharmacology data”
